# “And” between values parts separate entries of the source, which are not always exact repeats. Equal values may be shown once. Among all 400,000 compounds or so, about 3,700 (0.93%) were called active. Inconclusive results, whose numbers are uncertain, are shown with a selection of clear calls. Calls come from the whole dose curve; as a rule, active = well fitted inhibition curve with a large enough effect; inconclusive = small, poorly fitted or top-dose-only effect, or another doubt; inactive = no such curve, though single readings can be large or run the other way. Potencies of inconclusive entries are doubtful fits and often do not repeat.
# Chains of the proteins cited; added tags and fusions are not shown. Lines headed by an entry give the natural chain unless they say otherwise; changes in a name come on top.
# UniProt P11473: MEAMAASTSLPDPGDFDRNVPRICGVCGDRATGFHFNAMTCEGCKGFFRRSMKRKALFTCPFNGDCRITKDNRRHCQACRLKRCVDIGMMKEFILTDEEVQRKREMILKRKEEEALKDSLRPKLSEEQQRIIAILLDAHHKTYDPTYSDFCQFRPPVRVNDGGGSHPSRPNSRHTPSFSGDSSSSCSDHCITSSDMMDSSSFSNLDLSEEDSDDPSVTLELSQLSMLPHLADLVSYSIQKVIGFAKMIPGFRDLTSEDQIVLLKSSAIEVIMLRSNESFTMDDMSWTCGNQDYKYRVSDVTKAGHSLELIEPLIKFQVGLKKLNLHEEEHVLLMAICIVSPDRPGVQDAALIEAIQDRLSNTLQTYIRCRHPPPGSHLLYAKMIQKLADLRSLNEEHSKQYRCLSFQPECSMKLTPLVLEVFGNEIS
# Target: Vitamin D3 receptor (Homo sapiens) (UniProt P11473)
# Assay: Inhibitors of the vitamin D receptor (VDR): qHTS
# Conditions: VDR-SRC2-3 peptide fluorescence polarization, 2 h; max response, negative = inhibition: hits give low values
# In short: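 After 23 nl compound addition and a short centrifugation, plates sat for 2 hours at ambient temperature; polarization of fluorescence then indicated loss of VDR binding to peptide SRC2-3.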
# % is set by controls: 0 for no effect and ±100 for the full control effect; potency is the fitted concentration of half-maximal effect.
SMILES,"max response, negative = inhibition",Potency
N[C@H](C(=O)O)C1C(C(=O)O)C1C(=O)O (some centres undefined),inactive: -2.66%,
O=C(O)CSc1cc(NS(=O)(=O)c2cccc([N+](=O)[O-])c2)c2ccccc2c1O,,"inconclusive: 3.55 µM [inhibitor, full curve, poor fit]"
CC(C)CC1C(C#N)=C(N)Oc2n[nH]c(-c3ccccc3)c21 (centres undefined),,"inconclusive: 89.1 µM [inhibitor, single point]"
COCCOC(=O)c1c(C)oc2ccc(NS(=O)(=O)c3ccc(C)cc3)cc12,,"inconclusive: 89.1 µM [inhibitor, single point]"
CC(C)(C)OC(=O)N1C[C@H](O)C[C@H]1C(=O)OCC(=O)c1ccc([N+](=O)[O-])cc1,,"inconclusive: 39.8 µM [inhibitor, single point]"
CSc1ccccc1NC(=O)CN(C)C(=O)C1CCN(C(=O)Nc2ccccc2)CC1,inactive: 13.4%,
O=C(O)c1ccccc1/C=N/N1CCN(C2c3ccccc3-c3ccccc32)CC1,,"inconclusive: 3.16 µM [inhibitor, partial curve, poor fit]"
CCCCCC(=O)Nc1nc2ccccc2[nH]1,,"inconclusive: 89.1 µM [inhibitor, single point]"
Cc1ccc(N2CCN(c3ncnc4onc(-c5ccc(F)cc5)c34)CC2)c(C)c1,inactive: -0.475%,
Cc1ccc(O)c(NC2=C(Cl)C(=O)N(Cc3ccccc3)C2=O)c1,,"inconclusive: 17.8 µM [inhibitor, partial curve, poor fit]"
CCCNC(=O)CCCCn1c(=S)[nH]c2c([nH]c3ccc(OC)cc32)c1=O,,"inconclusive: 11.2 µM [inhibitor, partial curve, poor fit]"
CCCCCN1C(C(=O)c2ccccc2)=C(NC(=O)c2ccc(OC)c(OC)c2)c2ccccc2S1(=O)=O,,"inconclusive: 100 µM [inhibitor, partial curve, poor fit]"
CN(C(=O)CSc1nnc(C2CC2)n1-c1ccccc1)C1CCS(=O)(=O)C1 (centres undefined),inactive: 2.61%,
COc1ccc(/C=C2\C(=O)ON=C2c2ccccc2)cc1OC,,active: 35.5 µM
Cc1ccc(S(=O)(=O)NC(=O)Nc2ccc(N(C)C)cc2)cc1,,"inconclusive: 1.12 µM [inhibitor, full curve, poor fit]"
O=C(O)c1ccc(S(=O)(=O)N(Cl)Cl)cc1,,"inconclusive: 50.1 µM [inhibitor, partial curve, poor fit]"
Cc1ccc(CCNC(=O)c2sc3nc4n(c(=O)c3c2C)CCC4)cc1,,"inconclusive: 28.2 µM [inhibitor, single point]"
CCN1C(=O)[C@H]2[C@@H](c3ccc(OC)cc3)N3C(=O)CN(CCOC)C(=O)[C@@]3(C)[C@H]2C1=O,,"inconclusive: 44.7 µM [inhibitor, partial curve, poor fit]"
O=C(NCCN1CCOCC1)c1ccc(Cl)cc1,,"inconclusive: 44.7 µM [inhibitor, partial curve, poor fit]"
COc1ccc(Nc2nc(N3CCCC3)c3ccccc3n2)cc1,inactive: -1.54%,
Cc1ccc(/C=C(\C#N)C(=O)Nc2cccc3ncccc23)o1,,"inconclusive: 89.1 µM [inhibitor, single point]"
CCOc1cc(/C=C2\SC(=O)N(CC(=O)Nc3ccccc3F)C2=O)cc([N+](=O)[O-])c1O,,"inconclusive: 25.1 µM [inhibitor, single point]"

# Reformatted bar-delimited: two of the compounds above
SMILES | max response, negative = inhibition | Potency
Cc1ccc(N2CCN(c3ncnc4onc(-c5ccc(F)cc5)c34)CC2)c(C)c1 | inactive: -0.475% | 
COc1ccc(/C=C2\C(=O)ON=C2c2ccccc2)cc1OC |  | active: 35.5 µM

# Entries of single compounds from above:
# CCCCCC(=O)Nc1nc2ccccc2[nH]1 as listed: Potency: inconclusive: 89.1 µM [inhibitor, single point]
# CSc1ccccc1NC(=O)CN(C)C(=O)C1CCN(C(=O)Nc2ccccc2)CC1 as listed: max response, negative = inhibition: inactive: 13.4%
# CCOc1cc(/C=C2\SC(=O)N(CC(=O)Nc3ccccc3F)C2=O)cc([N+](=O)[O-])c1O as listed: Potency: inconclusive: 25.1 µM [inhibitor, single point]

# Later entries:

SMILES,"max response, negative = inhibition",Potency
O=C(O)C1CC(=O)N(c2ccc(F)cc2)C1 (centres undefined),,"inconclusive: 50.1 µM [inhibitor, partial curve, poor fit]"
Cc1nc2ccc(NC(=O)c3cc([N+](=O)[O-])cc([N+](=O)[O-])c3Cl)cc2s1,,"inconclusive: 50.1 µM [inhibitor, partial curve, poor fit]"
CCc1nnc(NC(=O)c2ccc(S(=O)(=O)N3CCc4ccccc4C3)cc2)s1,,"inconclusive: 56.2 µM [inhibitor, partial curve, poor fit]"
COc1ccc(N=Cc2nc(-c3ccccc3)oc2OC(C)=O)cc1,,active: 28.2 µM
O=C(CSc1ccc(-c2ccco2)nn1)c1ccc(F)cc1,,"inconclusive: 89.1 µM [inhibitor, single point]"
Cc1[nH]c(=O)[nH]c(=O)c1S(=O)(=O)Nc1cccc(Cl)c1C,inactive: -12.4%,
COCCn1c(=O)c(-c2ccccc2)nc2cnc(N3CCOCC3)nc21,inactive: 8.94%,
COc1ccc(S(=O)(=O)N2CCCCC2)cc1NC(=O)c1c(F)cccc1Cl,inactive: 6.01%,
COc1cc(C(C2C(=O)CC(C)(C)CC2=O)C2C(=O)CC(C)(C)CC2=O)ccc1OC(C)=O,,"inconclusive: 70.8 µM [inhibitor, single point]"
O=C(Nc1cc(C(F)(F)F)ccc1-n1cncn1)c1ccc(Cl)cc1,inactive: 1.18%,
C=C1C(=O)OC2C=C(CO)C3OC3C3OC3(C)CC(OC(=O)/C(=C/C)COC(C)=O)C12 (centres undefined),,"inconclusive: 70.8 µM [inhibitor, partial curve, poor fit]"
O=C(c1ccc(Br)o1)N(Cc1ccccc1)Cc1ccccc1,,"inconclusive: 141 µM [inhibitor, partial curve, poor fit]"
CN(c1nc(-c2ccc(Br)cc2)cs1)C1CCS(=O)(=O)C1 (centres undefined),inactive: 5.88%,
O=C(CCC1CCCCC1)NCc1cccs1,inactive: -7.03%,
COC(=O)c1sc(N)c(C(=O)OC)c1Cn1ncc(Cl)c(Cl)c1=O,,"inconclusive: 70.8 µM [inhibitor, single point]"
Nc1cc(S(=O)(=O)Nc2ccccc2Cl)ccc1N1CCCCC1,,"inconclusive: 50.1 µM [inhibitor, partial curve, poor fit]"
CCOc1ccccc1CNc1ncnc2onc(-c3ccc(F)cc3)c12,inactive: -0.555%,
COc1cccc(C(=O)Nc2sc3c(c2C(=O)O)CCCC3)c1,inactive: -14.7%,
O=C(Nc1ccc2c(c1)OCO2)C1CCCN(c2nc3ccccc3s2)C1 (centres undefined),inactive: 7.75%,
CCn1cc(C(=O)O)c(=O)c2cc(F)c(N3CCN(C(=S)NC(=O)c4ccc(OC)cc4)CC3)cc21,inactive: -14.1%,
O=c1[nH]c(N2CCCCC2)nc2ncn(Cc3ccccc3)c12,,"inconclusive: 25.1 µM [inhibitor, partial curve, poor fit]"
COCC(C)OC(=O)/C(C#N)=C\c1coc2ccc(C)cc2c1=O (centres undefined),,"inconclusive: 56.2 µM [inhibitor, partial curve, poor fit]"

SMILES,"max response, negative = inhibition",Potency
CCCCCSc1nc2c(c(=O)[nH]c(=O)n2C)n1CC,,"inconclusive: 89.1 µM [inhibitor, single point]"
Cc1ccc(-n2nc3cc(C)c(N)cc3n2)cc1,,"inconclusive: 70.8 µM [inhibitor, single point]"
O=C(NC1CCCC1)c1ccc2nc(-c3ccco3)c(-c3ccco3)nc2c1,,"inconclusive: 39.8 µM [inhibitor, partial curve, poor fit]"
CCN(CC)c1ccc(NC(=O)COc2ccccc2C)cc1S(=O)(=O)Nc1ccccc1OC,,"inconclusive: 79.4 µM [inhibitor, partial curve, poor fit]"
O=C(Nc1cccc(C(F)(F)F)c1)C1CCCN(S(=O)(=O)c2cccc3nsnc23)C1 (centres undefined),inactive: -13.1%,
Cc1cc(O)cc(O)c1C(=O)OC1(C)C(=O)C=C2C=C(/C=C/C(=O)O)OC=C2C1=O (centres undefined),,"inconclusive: 39.8 µM [inhibitor, full curve]"
CCOc1ccccc1/C=C/c1nc2ccccc2[nH]c1=O,,"inconclusive: 22.4 µM [inhibitor, partial curve, poor fit]"
CNc1ncnc2ccc(-c3ccccc3CN(C)C)cc12,,"inconclusive: 44.7 µM [inhibitor, partial curve]"
CC(=O)N1CC[n+]2c(-c3ccc([N+](=O)[O-])cc3)csc21,,"inconclusive: 22.4 µM [inhibitor, full curve, poor fit]"
COc1ccc(C[C@@H]2OC3(C=CC(=O)C=C3)O[C@H]2Cc2ccc(OC)cc2)cc1,,"inconclusive: 8.91 µM [inhibitor, full curve, poor fit]"
CN(CC(=O)Nc1ccc2c(c1)CCC2)CC(=O)Nc1ccccc1Br,,"inconclusive: 28.2 µM [inhibitor, partial curve, poor fit]"
Clc1ccc(Nc2ccc(NCc3ccccc3)nn2)cc1,inactive: -2.65%,
Cn1c(/N=C/c2c(O)ccc3ccccc23)nc2ccccc21,,active: 35.5 µM
CC(C)c1ccc(S(=O)(=O)N2CCN(C(=S)NCc3ccco3)CC2)cc1,,"inconclusive: 44.7 µM [inhibitor, partial curve, poor fit]"
Cc1coc2c1C(=O)C(=O)c1c-2ccc2c1CCCC2(C)C,,active: 12.6 µM and active: 5.62 µM and active: 28.2 µM
O=[N+]([O-])c1ccc(CN2CCN(Cc3c[nH]c4ccccc34)CC2)cc1,inactive: 6.45%,
O=C(Oc1ccc2ccc(O)cc2c1)C1CCCCC1,,"inconclusive: 39.8 µM [inhibitor, single point]"
Cc1c(O)nc(SCC(=O)Nc2ccc3c4c(cccc24)CC3)n(-c2ccc(F)cc2)c1=O,inactive: -3.15%,
CCOC(=O)C1=C(O)c2ccccc2C(=O)/C1=C\c1ccc(C)cc1,,"inconclusive: 1.12 µM [inhibitor, full curve, poor fit]"
CC(CC1C(C#N)=C(N)SC(N)=C1C#N)c1ccccc1 (centres undefined),,"inconclusive: 89.1 µM [inhibitor, single point]"

# From PubChem BioAssay AID504847 (National Center for Advancing Translational Sciences (NCATS), 2011)
